Data on 1 sequence can be found in patent publication US20020137662.

Protein sequences, listed by entry. Tags and fused reporters are not part of them. Lines headed by an entry give the natural chain unless they say otherwise; changes in a name come on top.
UniProt P42003: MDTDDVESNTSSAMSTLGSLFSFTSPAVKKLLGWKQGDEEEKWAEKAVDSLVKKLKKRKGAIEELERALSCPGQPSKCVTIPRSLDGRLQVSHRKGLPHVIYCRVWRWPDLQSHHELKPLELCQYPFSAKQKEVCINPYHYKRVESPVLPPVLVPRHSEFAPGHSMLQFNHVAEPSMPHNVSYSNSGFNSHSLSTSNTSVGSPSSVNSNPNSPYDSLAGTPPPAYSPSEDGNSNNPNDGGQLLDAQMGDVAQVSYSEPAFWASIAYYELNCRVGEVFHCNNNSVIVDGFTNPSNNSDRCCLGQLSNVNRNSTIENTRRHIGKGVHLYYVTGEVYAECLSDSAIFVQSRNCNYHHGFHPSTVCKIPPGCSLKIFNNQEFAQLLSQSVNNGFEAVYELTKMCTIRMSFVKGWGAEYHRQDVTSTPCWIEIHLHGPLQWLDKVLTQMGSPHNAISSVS

For some assays here: Where a protein sequence is shown, tags need not be part of it.

One series concerns the target Mad (UniProt P42003). The experiment in a line: activity in cells. Conditions: Mad plus Medea activate LRR-lacZ reporter in S2 cells; effect of dCtBP inhibition tested; protein in cells; only the site is given.
A further series has as its target T1, Medea (UniProt O62609).
T1 sequence (looked up, limits assumed): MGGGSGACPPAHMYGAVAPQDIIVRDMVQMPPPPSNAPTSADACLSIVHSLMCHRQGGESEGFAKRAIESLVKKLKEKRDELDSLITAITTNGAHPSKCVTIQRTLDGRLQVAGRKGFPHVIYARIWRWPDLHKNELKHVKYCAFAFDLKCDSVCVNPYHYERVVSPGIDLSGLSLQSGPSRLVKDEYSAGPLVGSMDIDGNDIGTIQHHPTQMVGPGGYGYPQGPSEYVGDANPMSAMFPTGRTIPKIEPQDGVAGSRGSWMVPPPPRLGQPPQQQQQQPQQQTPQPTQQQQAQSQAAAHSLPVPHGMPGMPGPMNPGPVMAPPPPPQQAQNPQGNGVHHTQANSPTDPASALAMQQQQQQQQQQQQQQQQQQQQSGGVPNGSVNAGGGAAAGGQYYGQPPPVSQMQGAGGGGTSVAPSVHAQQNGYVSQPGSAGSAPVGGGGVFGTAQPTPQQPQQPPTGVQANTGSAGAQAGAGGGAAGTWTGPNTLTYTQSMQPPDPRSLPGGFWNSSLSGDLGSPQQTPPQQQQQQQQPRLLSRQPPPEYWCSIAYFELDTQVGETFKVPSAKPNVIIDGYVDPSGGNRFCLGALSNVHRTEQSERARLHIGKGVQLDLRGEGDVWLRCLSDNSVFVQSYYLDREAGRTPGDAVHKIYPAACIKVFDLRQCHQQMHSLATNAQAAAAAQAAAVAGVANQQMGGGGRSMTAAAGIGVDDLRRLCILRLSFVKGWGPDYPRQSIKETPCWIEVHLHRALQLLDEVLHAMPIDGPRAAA
In words: activity in cells. Conditions: Mad plus Medea activate LRR-lacZ reporter in S2 cells; effect of dCtBP inhibition tested; protein in cells; only the site is given.

Consider “AGACGTCTGTCT (double strand) [LRR Smad box repeat]”, for which the “activity on this sequence” value with Mad and with Medea was “active” in each case.
